Measurements as given in US20260034123A1 (Cedilla Therapeutics, Inc., priority 2022, published 2026).

Key:
Kuramochi cells RB-KO = assay: IncuCyte Kuramochi cell proliferation assay, RB-KO; settings: read-out: IncuCyte Kuramochi RB-KO: IC50 - Batch Mean, 72 hours, cell count
Description: (§1) IncuCyte® assay was used to measure the effect of disclosed compounds on cell proliferation. Fluorescent microscopy images of cells were taken immediately after compound treatment and 72 hours later. Image analysis software was used to obtain cell counts as a function of compound concentration. Kuramochi cells labeled with mApple-H2B were seeded on 384-well assay-ready plates. Plates were placed in an IncuCyte® (Sartorius) and scanned at 0 and 72 hours. IncuCyte® software was used to count the number of fluorescent nuclei in each well. The fold change in cell count from 0 to 72 hours in wells treated with increasing compounds concentrations (10 pts, 1/2 log dilution, 20 µM top concentration) was normalized to DMSO control wells. The normalized cell counts were fit with dose response curves and a GI50 was calculated.

CDK2/Cyclin E1 = CDK2/Cyclin E1 (Homo sapiens, UniProt P24941); assay: ADP-Glo Luminescent Kinase Assay (CDK2/E1-37C); settings: read-out: ADPGLO (CDK2/E1-37C): IC50; 0.18 nM CDK2/Cyclin E1, 100 μM ATP, Histone H1, 37° C.
Description: Inhibition of CDK2/Cyclin E1 activity by the presence of small molecules was evaluated using ADP-Glo Luminescent Kinase Assay (Promega). Activated CDK2/Cyclin E1 was incubated with its substrate Histone H1 (SignalChem H10-54N) in the kinase reaction buffer (100 μM ATP, 50 mM HEPES pH 7.5, 10 mM MgCl2, 1 mM EDTA, 2 mM DTT, 0.01% Brij35, 0.5 mg/mL BSA). Luminescence was recorded with an Envision plate reader (PerkinElmer).
Dose titrations of inhibitors in 100% DMSO were combined with 0.36 nM CDK2/Cyclin E1 in reaction buffer. The mixtures were incubated for 60 minutes at 37° C. before the addition of ATP and Histone H1 substrate to initiate the kinase reaction. The final conditions were 0.18 nM CDK2/Cyclin E1, 100 μM ATP, and […] Histone H1. The reactions were incubated at 37° C. for 90 minutes before being stopped with the addition of ADP-Glo reagent. This mixture was incubated at room temperature for 60 minutes before Kinase Detection Solution is added to generate luminescence. The stopped reactions were analyzed on an Envision plate reader. The conversion ratios were normalized to yield % activity, plotted against compound concentration, and fit to a four-parameter equation to determine the IC50 for each compound.

Kuramochi cells RB-WT = assay: IncuCyte Kuramochi cell proliferation assay, RB-WT; settings: read-out: IncuCyte - Kuramochi RB-WT: IC50, 72 hours, cell count
Description: as §1

In the case of CC1(C)C[C@@H]1C(=O)N1CC2(CN(C(=O)c3cnn(Cc4ccc(F)cc4OC(F)F)c3)C[C@H]2COCc2cccc(C3CCC(F)(F)CC3)c2C(=O)O)C1, the IC50 (Kuramochi cells RB-KO) is reported as > 10 µM, the IC50 (CDK2/Cyclin E1) is reported as < 0.5 µM and the IC50 (Kuramochi cells RB-WT) is reported as > 10 µM.

The structures given here were assigned with low confidence; some may be wrong.
